Experimental data: the supplement of paper PMC8732350
Counter-ions that a name gives are not always drawn. ± gives the standard deviation of the averaged measurements. Some of the results follow. Most values lie within the scatter of the assay; repeated measurements hardly agree.

test system: A549; assay: surface PD-L1 immunofluorescence intensity relative to IFN-gamma-only control (ratio); higher = more PD-L1 expression; conditions: 10 µM; exposure time 24 h; IFN-gamma 100 ng/mL

Row | SMILES | surface PD-L1 immunofluorescence intensity
1 | COc1ccc(CNC(=O)/C=C/c2ccc3[nH]cc(CCN(C)C)c3c2)cc1 | 0.891
2 | C[CH2][Hg][S]c1ccccc1C(=O)[O-].[Na+] [Thimerosal] | 1.03
3 | C[N+](C)(C)CC#CCN1CCCC1=O [Oxotremorine M] | 1.1
4 | CN(C)Cc1c[nH]c2ccccc12 [Gramine] | 1.09
5 | C[N+]1(C)CCOC(O)(c2ccc(-c3ccc(C4(O)C[N+](C)(C)CCO4)cc3)cc2)C1 (stereo unspecified) [Hemicholinium bromide] | 0.941
6 | COc1cc2c(cc1O)C(CCc1ccc(Cl)cc1)N(C)CC2 (stereo unspecified) | 0.988
7 | COc1ccc(-n2nc(C(F)(F)F)cc2-c2ccc(Cl)cc2)cc1 | 1.05
8 | Nc1ccncc1 [4-Aminopyridine] | 1.03 ± 0.011
9 | C[C@]12CCC(=O)C=C1CC[C@@H]1[C@@H]2C(=O)C[C@]2(C)C(=O)CC[C@@H]12 [Adrenosterone] | 0.988
10 | O=P(O)(O)Cc1ccccc1 [Benzylphosphonic acid] | 1.04
11 | Cc1ncc(CN2CC=C(c3ccccc3)CC2)c(N)n1 | 1.02
12 | Cc1[nH]c2ccc(O)cc2c1CCN [2-Methyl-5-hydroxytryptamine hydrochloride] | 1
13 | COc1ccc(C(=O)N2CCCC2=O)cc1 [Aniracetam] | 0.942 ± 0.13
14 | CC1(C)CCCC(C)(C)N1[O] | 0.915
15 | CC(C(=O)OC1CC2CCC(C1)N2C)c1ccc(Br)cc1 (stereo unspecified) [PG-9 maleate] | 1.12
16 | O=C(O[C@H]1C[C@H]2CC[C@@H](C1)[N+]21CCCC1)C(O)(c1ccccc1)c1ccccc1 [Trospium chloride (Sanctura)] | 0.838
17 | NCC(CS(=O)(=O)O)c1ccc(Cl)cc1 (stereo unspecified) [Saclofen] | 1.07
18 | CC[C@@H](C(N)=O)N1CCCC1=O [Levetiracetam] | 0.993
19 | O=Cc1cn(Cc2ccc(Cl)cc2)c2ccccc12 [Oncrasin 1] | 0.951
20 | c1cc(Cc2cnc[nH]2)ccn1 [Immethridine dihydrobromide] | 0.941
21 | Oc1ccc2c3c1O[C@H]1c4[nH]c5c(c4C[C@@]4(O)[C@@H](C2)N(CC2CC2)CC[C@]314)C[C@@]1(O)[C@H]2Cc3ccc(O)c4c3[C@@]1(CCN2CC1CC1)[C@H]5O4 [nor-Binaltorphimine dihydrochloride] | 1.02

Row | SMILES | surface PD-L1 immunofluorescence intensity
22 | CCCN1C[C@H](CSC)C[C@@H]2c3cccc4[nH]cc(c34)C[C@H]21 [Pergolide mesylate] | 0.953 ± 0.024
23 | N.N.[Cl][Pt][Cl] [Cisplatin] | 1
24 | C[N+]1(C)CCc2cc3c(cc2C1C1OC(=O)c2c1ccc1c2OCO1)OCO3 (single isomer, unassigned; (-)) [(-)-Bicuculline methobromide] | 0.965
25 | CCC(=O)O[C@@](Cc1ccccc1)(c1ccccc1)[C@@H](C)CN(C)C [Levopropoxyphene napsylate] | 1.07
26 | CN1c2ccccc2C(NCCCCCCC(=O)O)c2ccc(Cl)cc2S1(=O)=O (stereo unspecified) [Tianeptine] | 0.966
27 | CN1c2ccccc2C(NCCCCCCC(=O)O)c2ccc(Cl)cc2S1(=O)=O (stereo unspecified) [Tianeptine sodium] | 1.04
28 | CN1CCN(c2ccc([N+](=O)[O-])c3no[n+]([O-])c23)CC1 | 1.07
29 | N#Cc1nn(-c2c(Cl)cc(C(F)(F)F)cc2Cl)c(N)c1[S+]([O-])C(F)(F)F (stereo unspecified) [Fipronil] | 0.883
30 | CC(C)C[C@@H](N)C1(c2ccc(Cl)cc2)CCC1 | 0.898
31 | CCCN(C/C=C/I)C1CCc2ccc(O)cc2C1 (stereo unspecified) [7-Hydroxy-PIPAT maleate] | 1.09
32 | O=C(O)CNC(=O)c1c(O)c2ccccc2n(Cc2ccccc2)c1=O | 1.03
33 | NC1(c2ccccc2Cl)CCCCC1=O (stereo unspecified) [Norketamine hydrochloride] | 1.03
34 | CC(CCc1ccccc1)NC(C)C(O)c1ccc(O)cc1 (stereo unspecified) [Nylidrin] | 0.95
35 | COc1cccc(C2(O)CCCCC2CN(C)C)c1 (stereo unspecified) [Tramadol hydrochloride] | 1.04
36 | CC(=O)OC1CN2CCC1CC2 (stereo unspecified) [Aceclidine Hydrochloride] | 1.16
37 | CN1C[C@H](C(=O)N[C@]2(C)O[C@@]3(O)[C@@H]4CCCN4C(=O)[C@H](Cc4ccccc4)N3C2=O)C[C@@H]2c3cccc4[nH]cc(c34)C[C@H]21 [Dihydroergotamine mesylate] | 0.984
38 | O=C1NCN(c2ccccc2)C12CCN(CC1COc3ccccc3O1)CC2 (stereo unspecified) [Spiroxatrine] | 0.998
39 | C[N+]1(C)[C@@H]2CC[C@H]1C[C@@H](OC(=O)C(CO)c1ccccc1)C2 (stereo partly specified) [Methylatropine nitrate] | 1.02
40 | c1ccc2nc(N3CCNCC3)ccc2c1 [Quipazine dimaleate salt] | 0.9
41 | C[N+](C)(C)CCCCCCCCCC[N+](C)(C)C [Decamethonium bromide] | 1.01
42 | Clc1ccc(C2=CCCC3CCC2N3)cn1 (stereo unspecified) [UB 165 fumarate] | 1.04

Five records drawn at random from the list so far, as already listed:
Row | SMILES | surface PD-L1 immunofluorescence intensity
36 | CC(=O)OC1CN2CCC1CC2 (stereo unspecified) [Aceclidine Hydrochloride] | 1.16
32 | O=C(O)CNC(=O)c1c(O)c2ccccc2n(Cc2ccccc2)c1=O | 1.03
26 | CN1c2ccccc2C(NCCCCCCC(=O)O)c2ccc(Cl)cc2S1(=O)=O (stereo unspecified) [Tianeptine] | 0.966
4 | CN(C)Cc1c[nH]c2ccccc12 [Gramine] | 1.09
21 | Oc1ccc2c3c1O[C@H]1c4[nH]c5c(c4C[C@@]4(O)[C@@H](C2)N(CC2CC2)CC[C@]314)C[C@@]1(O)[C@H]2Cc3ccc(O)c4c3[C@@]1(CCN2CC1CC1)[C@H]5O4 [nor-Binaltorphimine dihydrochloride] | 1.02

Next records:

Row | SMILES | surface PD-L1 immunofluorescence intensity
43 | CO[C@@H]1[C@H](OC(=O)NC(=O)CCl)CC[C@]2(CO2)[C@H]1[C@@]1(C)O[C@@H]1CC=C(C)C | 1.03
44 | CCCCCCC[n+]1ccc(-c2cc[n+](CCCCCCC)cc2)cc1 [DHBP dibromide] | 0.893
45 | C=CCN1C[C@H](C)N([C@H](c2ccc(C(=O)N(CC)CC)cc2)c2cccc(OC)c2)C[C@H]1C | 1.12
46 | C=CCN1C[C@H](C)N([C@H](c2ccc(C(=O)N(CC)CC)cc2)c2cccc(O)c2)C[C@H]1C | 1.01
47 | O=[N+]([O-])O[C@@H]1CO[C@H]2[C@@H]1OC[C@@H]2O [Isosorbide mononitrate] | 0.999
48 | N=C(N)NN [Aminoguanidine hydrochloride] | 0.935
49 | C[C@H](N)[C@H](O)c1ccc(O)c(O)c1 [Levonordefrin] | 0.998
50 | CC(C)N(CCC(C(N)=O)(c1ccccc1)c1ccccn1)C(C)C (stereo unspecified) [Disopyramide] | 0.906
51 | CN1[C@@H]2CC[C@H]1C[C@@H](OC(=O)[C@H](CO)c1ccccc1)C2 [Hyoscyamine (Daturine)] | 0.955
52 | CN(C)CCN(C)CCc1ccc(Cl)c(Cl)c1 [BD 1047 dihydrobromide] | 1.02
53 | O=C(O)Cc1cccnc1C(=O)O [Homoquinolinic acid] | 1.06
54 | O=[N+]([O-])c1cc(O)c(O)c([N+](=O)[O-])c1 | 1.01
55 | C[C@H]([C@H](O)CCC(C)(C)O)[C@H]1CC[C@@]2(O)C3=CC(=O)[C@@H]4C[C@@H](O)[C@@H](O)C[C@]4(C)[C@H]3CC[C@]12C [Ecdysone] | 0.971
56 | c1ccc(CCCCN2CCC(c3ccccc3)CC2)cc1 [4-PPBP maleate] | 0.956
57 | C[C@H](N)Cc1cnc[nH]1 [(S)-(+)-a-Methylhistamine dihydrobromide] | 0.966
58 | c1cc2c(cc1[C@H]1OC[C@H]3[C@@H]1CO[C@@H]3c1ccc3c(c1)OCO3)OCO2 [Sesamin (Fagarol)] | 1.05
59 | COc1ccc(CN2CCNCC2)c(OC)c1OC [Trimetazidine dihydrochloride] | 0.939
60 | COc1ccc2c(c1)c(CCN1CCOCC1)c(C)n2C(=O)c1cccc(Cl)c1Cl | 0.942
61 | O=C(N[C@H]1CN2CCC1CC2)c1ccc(Cl)cc1 | 0.938
62 | N#Cc1ccc(N2CCN(C(=O)COc3ccc4[nH]cc(CCN)c4c3)CC2)cc1 [Donitriptan hydrochloride] | 1.04
63 | CC(C)[N+](C)(CCC(C(N)=O)(c1ccccc1)c1ccccc1)C(C)C [Isopropamide iodide] | 0.993

Row | SMILES | surface PD-L1 immunofluorescence intensity
64 | C#C[C@]1(O)CC[C@H]2[C@@H]3CCC4=CC(=O)CC[C@]4(C)[C@H]3CC[C@@]21C [Ethisterone] | 0.91 ± 0.046
65 | O=c1[nH]c2ccccc2n1CCCN1CCC(n2c(=O)[nH]c3cc(Cl)ccc32)CC1 [Domperidone] | 1.19
66 | CC(=O)O[C@@]12CO[C@@H]1C[C@@H](O)[C@@]1(C)C(=O)[C@H](O)C3=C(C)[C@@H](O)C[C@@](O)([C@@H](OC(=O)c4ccccc4)[C@H]21)C3(C)C [10-DAB (10-Deacetylbaccatin)] | 0.914
67 | CC(C)CC(N(C)C)C1(c2ccc(Cl)cc2)CCC1 (stereo unspecified) [Sibutramine HCl] | 0.974
68 | C=CCN1CC[C@]23c4c5ccc(O)c4O[C@H]2/C(=N/NC(=O)c2ccccc2)CC[C@@]3(O)[C@H]1C5 [Naloxone benzoylhydrazone] | 0.995
69 | CC1(C)CC(O)CC(C)(C)N1[O] [Tempol (4-Hydroxy-TEMPO)] | 0.955
70 | CC1(C)CC(O)CC(C)(C)N1[O] | 0.937
71 | CC(=O)N(C)c1cccc(-c2ccnc3c(C(=O)c4cccs4)cnn23)c1 [Indiplon] | 1.05
72 | N[C@@H](Cn1oc(=O)[nH]c1=O)C(=O)O [L-Quisqualic acid] | 1.12
73 | C[C@H](Cc1ccc(OCC(=O)O)cc1)NC[C@H](O)c1cccc(Cl)c1 | 0.959
74 | S=C(NC1CCCCC1)N1CCC(c2cnc[nH]2)CC1 [Thioperamide maleate] | 1.08
75 | S=C(NC1CCCCC1)N1CCC(c2cnc[nH]2)CC1 [Thioperamide] | 1.01
76 | CN1[C@@H]2CC(O)C[C@H]1[C@@H]1O[C@@H]12 (stereo partly specified) [Scopine] | 0.954
77 | Cc1cccc(C(C)c2c[nH]cn2)c1C (stereo unspecified) [Medetomidine hydrochloride] | 0.976
78 | Cc1cccc(C(C)c2c[nH]cn2)c1C (stereo unspecified) [Medetomidine HCl] | 0.866
79 | C=C[C@H]1CN2CC[C@H]1C[C@H]2[C@H](O)c1ccnc2ccccc12 [Cinchonidine] | 1.03
80 | COC[C@H]1OC(=O)c2coc3c2[C@@]1(C)C1=C(C3=O)[C@@H]2CCC(=O)[C@@]2(C)C[C@H]1OC(C)=O [Wortmannin] | 0.975 ± 0.04
81 | CN(C(=O)Cc1ccc(Cl)c(Cl)c1)[C@H](CN1CCCC1)c1ccccc1 [ICI-199,441 hydrochloride] | 0.935
